Results from paper PMC11557686.
Results are given in words; binding and its absence hold for the method and conditions named. In cells and extracts the contact can be indirect. For some assays here: Binding can be weak; no strength is given. For some assays here: Tags and fused reporters may be left off the sequences shown.

Protein sequences, listed by entry. Tags and fused reporters are not part of them. Lines headed by an entry give the natural chain unless they say otherwise; changes in a name come on top.
UniProt Q8NBP7: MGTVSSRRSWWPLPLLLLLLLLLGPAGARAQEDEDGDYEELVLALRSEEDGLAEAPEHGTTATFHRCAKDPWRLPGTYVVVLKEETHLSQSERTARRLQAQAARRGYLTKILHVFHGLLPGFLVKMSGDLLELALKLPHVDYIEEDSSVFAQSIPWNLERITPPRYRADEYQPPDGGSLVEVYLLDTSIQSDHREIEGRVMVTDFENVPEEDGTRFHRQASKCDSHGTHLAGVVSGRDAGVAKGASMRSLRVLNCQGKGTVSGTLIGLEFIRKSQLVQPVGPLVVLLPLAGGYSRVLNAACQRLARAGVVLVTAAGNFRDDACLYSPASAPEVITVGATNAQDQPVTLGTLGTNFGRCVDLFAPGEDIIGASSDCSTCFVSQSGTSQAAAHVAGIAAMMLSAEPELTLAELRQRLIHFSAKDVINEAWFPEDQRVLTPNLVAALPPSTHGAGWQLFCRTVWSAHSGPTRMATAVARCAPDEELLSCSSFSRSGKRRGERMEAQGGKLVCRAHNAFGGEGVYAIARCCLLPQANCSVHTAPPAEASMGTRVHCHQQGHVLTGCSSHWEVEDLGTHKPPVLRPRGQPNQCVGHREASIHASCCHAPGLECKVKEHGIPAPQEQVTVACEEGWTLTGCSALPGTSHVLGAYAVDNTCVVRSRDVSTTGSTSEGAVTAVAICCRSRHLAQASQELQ

How the values were obtained:
PCSK9-V5 = PCSK9-V5 (UniProt Q8NBP7); test: cross-linking + co-IP; HEK TREx-293 TMED10 KO cells co-transfected; 0.2 mM DSP in PBS with 0.2 mM CaCl2, RT 30 min; lysis in 1.0% Triton X-100, 150 mM NaCl, 2 mM CaCl2, pH 7.5; anti-HA agarose or anti-V5 on Protein G Sepharose; immunoblot
[1] = target: SP-HA-TMED10 GOLD domain deletion mutant (UniProt P49755); test: as above

Row | Binder | binding (PCSK9-V5) | binding [1]
1 | SP-HA-TMED10 WT (protein, UniProt P49755 32-219) ISFHLPINSRKCLREEIHKDLLVTGAYEISDQSGGAGGLRSHLKITDSAGHILYSKEDATKGKFAFTTEDYDMFEVCFESKGTGRIPDQLVILDMKHGVEAKNYEEIAKVEKLKPLEVELRRLEDLSESIVNDFAYMKKREEEMRDTNESTNTRVLYFSIFSMFCLIGLATWQVFYLRRFFKAKKLIE | binds | 
2 | endogenous Cab45 (protein, UniProt Q9BRK5 37-362) RPANHSSTRERVANREENEILPPDHLNGVKLEMDGHLNRGFHQEVFLGKDLGGFDEDAEPRRSRRKLMVIFSKVDVNTDRKISAKEMQRWIMEKTAEHFQEAMEESKTHFRAVDPDGDGHVSWDEYKVKFLASKGHSEKEVADAIRLNEELKVDEETQEVLENLKDRWYQADSPPADLLLTEEEFLSFLHPEHSRGMLRFMVKEIVRDLDQDGDKQLSVPEFISLPVGTVENQQGQDIDDNWVKDRKKEFEELIDSNHDGIVTAEELESYMDPMNEYNALNEAKQMIAVADENQNHHLEPEEVLKYSEFFTGSKLVDYARSVHEEF |  | no binding
